PubChem BioAssay AID1508600 (Functional Genomics Laboratory (NCATS/FGL), 2020)
Among all 53,000 sequences or so, about 3,700 (7%) were called active.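 Rule for the calls: active = gene knockdowns whose robust z-score for IL-1 alpha signal is at least 2 or at most -2, so actives lie on both sides; inactive = the rest.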 The list shows a part of the results.

assay: Components of the Cytosolic LPS Sensing Pathway: Gene Identification via Genome-wide siRNA Screen; conditions: RAW264.7 macrophages, IL-1a HTRF, actives lie on both sides, screened at 100 nM (by protocol), cells primed 5 h with Pam3CSK4 first;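 note: robust z of the log signal after scaling to non-targeting control siRNA wells of the plate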
Outline: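 Three distinct siRNAs per gene were tested singly at 100 nM in RAW264.7 macrophages. Following Pam3CSK4 priming and 24 hour LipidA transfection, IL-1a secretion was read by HTRF.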

| Sequence | z-score |
| --- | --- |
| GGUUGAAGUCUAUUCUCGATT against Trap1 | inactive: -0.139 |
| GGGAAAAUGGCUUAACCGUTT against Siglecg | inactive: 0.703 |
| CGCAAACCUACAGCUCUGATT against Rhox10 | inactive: -0.909 |
| GGAGGAUCUUAAGAAGUUCTT against Chchd6 | inactive: 0.689 |
| GCACCUGAUUAAGUUGCAUTT against Med15 | active: -2.11 |
| GGCAAUAACAUUCGGUAUUTT against Snrpd1 | active: -2.29 |
| GGUCGAACGAUUCUGCUGUTT against Slfn5 | inactive: 0.207 |
| GCCAUAUAUCUGCUAUCAUTT against Clvs2 | active: 2.34 |
| GGCCAAGUUCUACAAUGACTT against Ptp4a3 | inactive: 0.222 |
| GGCAAGAAAGGACCAAUGGTT against Cln8 | inactive: 0.206 |
| GGAUGCUGAUUGAAUUCUATT against Slc16a9 | inactive: -0.579 |
| GGAAAAGAUCAGAGAAUACTT against Hnrnpab | inactive: 0.504 |
| GGAUAUUUCCAGACAAUAUTT against Podnl1 | inactive: -1.42 |
| GGAUGCUAAAAAACCAAUGTT against Ndufs1 | inactive: 0.701 |
| GGAGUUGAAACUGAAUACATT against Pramel7 | inactive: -0.329 |
| GCUCUCACAGUUGCAUUCGTT against Lrrc58 | inactive: 0.624 |
| GCUGCUCAAGAUCAUUUGATT against Fam135b | inactive: 0.638 |
| GGACCUCUUCAAUUGGACATT against Fut4 | inactive: -0.435 |
| GGAGACUGCUAUAUUGGCUTT against 1700092C17Rik | inactive: -0.147 |
| CCUCUACAAUGUAACCAACTT against Kir3dl2 | inactive: -0.183 |
| CGAGUUUGGACAUACCUUUTT against Atg13 | inactive: 1.24 |
| GCUAACCAUGUGACAAUAATT against Timm8a1 | inactive: -1.39 |
| GGCAACUUGUUCCAGCAAUTT against Aifm1 | inactive: -0.755 |

Two entries drawn at random from the list so far, as already listed:

| Sequence | z-score |
| --- | --- |
| GGACCUCUUCAAUUGGACATT against Fut4 | inactive: -0.435 |
| GGAAAAGAUCAGAGAAUACTT against Hnrnpab | inactive: 0.504 |

Later entries.

| Sequence | z-score |
| --- | --- |
| GCUAACUGAAAGGUUCUUCTT against Eif3l | inactive: 0.126 |
| CCAUCAAAGAAACAGAUUGTT against Fibin | inactive: -0.513 |
| CGAUGUUAUCAGUUUCAUATT against Sema3d | inactive: 0.758 |
| GGAGCUUAUCAACUACUAUTT against Cltc | inactive: -0.181 |
| GCAUGGAGUCUGGUAUCUGTT against Olfr504 | inactive: -1.33 |
| GGAGCCAAGAGUGAAGAACTT against Tbp | inactive: -0.183 |
| CCAAAGUGGUUUUCAUCCUTT against Hps3 | inactive: 0.434 |
| GGAUCUCCAAGUUAAAGAATT against Pigo | inactive: -0.562 |
| GGCCUUCCUUCCCUUAGAGTT against Tmem222 | inactive: 0.191 |
| GGAAAGACUUGCAUUUUCUTT against 1700010I14Rik | inactive: 1.61 |
| GGGCAGAACUGCAUGAGAATT against Acp1 | inactive: -0.176 |
| GAUGCGGCUCCUUGGAAUUTT against Slc51b | active: 2.38 |
| GGAAGGGUCACUACAGGCATT against Rnf31 | inactive: 0.595 |
| GGCUGUGCUCCUUGUUAGUTT against Olfr1143 | inactive: -0.083 |
| GGAACAUUUACAACAUCCATT against Itgb2 | inactive: -0.614 |
| GGCAUUUCUUGUGUUACGUTT against Prxl2c | inactive: -0.632 |
| GGCUAAGAAACUGAAGAGATT against Ccm2l | inactive: -1.59 |
| GCGAUCCUCUCUACUUAACTT against Eno4 | inactive: -1.49 |
| GGAUUUAACCUCUCCAACUTT against Olfr1030 | inactive: -0.043 |
| GGCAAGCUUGAAUAAUGAATT against Fam104a | inactive: -0.33 |
| GGGCUUUUUUCUUAAUGCCTT against Pramel3 | inactive: -1.13 |
| GGUGAAACGGGACAUGCAATT against Mfsd1 | inactive: -1.3 |
| GCUGGAGGUAUUCAACAUGTT against Gorasp1 | inactive: 0.59 |

| Sequence | z-score |
| --- | --- |
| CGGUUACUUUUGAAGCUUGTT against Ogfod1 | inactive: 1.49 |
| GGCUGGAGAUCUCUCAAAGTT against Nkain2 | inactive: 1.64 |
| GGUCUUCAAAAUCAUCCCUTT against Ces2e | inactive: 0.221 |
| GCUACUGUGUCGGUCACAUTT against Olfr514 | inactive: 0.753 |
| GGAAAAUGUCACUUUAUGGTT against Fcgr1 | inactive: 0.556 |
| GCACCUCUAUGAGAGGACATT against Anxa8 | inactive: 0.678 |
| GCUUAAAAUUCGGUAAGGATT against Il17ra | inactive: 0.366 |
| GGCAAAUUCGAAAUAGACATT against Evx2 | inactive: 0.227 |
| CCUCCAAGAUCACUGAACATT against 2410018L13Rik | inactive: -0.536 |
| CCCUCUGGCUAAUAAAUGATT against Spaca6 | inactive: 1.75 |
| GGAUGUUCUGUUCUUGAAGTT against Pgk1 | inactive: 1.36 |
| GGCUUCUUCCUUGAGAGUCTT against Tgfa | inactive: 0.162 |
| GGAUAAAGGCCUGAGCGAUTT against Wwc2 | inactive: -0.575 |
| CGCAUUUGAAAAAGAGUGGTT against Ndufs5 | inactive: -1.31 |
| CCUUUGGAAACAACCACUUTT against Ugt1a6a | inactive: 0.604 |
| GGUUAUUGGGAUUGAGUGUTT against Prmt1 | inactive: 0.125 |
| CCAUGAGUGACCAAACAGGTT against Snx22 | inactive: -0.509 |
| GCGCAUUGUGCAGGAUAAATT against Tnpo2 | inactive: -1.22 |
| CCUCUACAACCUAAUUUAUTT against Abcd1 | inactive: 0.927 |
| GGACAAUAGAUCGUCACUUTT against Wdpcp | inactive: -0.975 |
| GGACCAUCCUACAUCGGUCTT against Fpgs | inactive: 1.02 |
| GGAAGUCGCUUGGAGUUCUTT against Sh2b1 | inactive: 0.044 |
